Values from PubChem BioAssay AID1159578 (Peter MacCallum Cancer Centre, 2015).
Shown is a random part of about 18,000 deposited reagents. About 1,030 of them (5.7%) were called active. 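Inactive calls also include pools with fewer than 3300 nuclei, whose migration was not assessed.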 The raw values are shown without normalisation. Unmarked entries are inactive.

Assay: 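Knock-downs that alter how fast lymphatic endothelial cells migrate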 (primary screen)
System: human lymphatic endothelial cells
Reagent: siRNA pool against human genes, 40 nM
Duration: 48 h after transfection
Detection: 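High-content imaging of dye-stained cells in a scratch assay measures filled wound area and nuclei per well; duplicate means given as ratio to mock and robust z-score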
Scale: migration robust z-score: higher = faster migration into the scratch; migration relative to mock: higher = more scratch area covered than mock; nuclei per well: higher = more cells in the well
Hit rule: 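Migration changed when robust z exceeds 2 or falls below -2 and mean nuclei number is at least 3300; otherwise not called changed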
Meaning of the calls: active = migration changed; inactive = no migration change, or too few cells

| migration robust z-score | migration class with cell-count check | migration relative to mock | nuclei per well, duplicate mean | gene knocked down | PubChem SID |
| --- | --- | --- | --- | --- | --- |
| 0.96 | migration z between -2 and 2; enough cells | 0.99 | 6311 | RUVBL1 | SID255353674 |
| 0.1 | migration z between -2 and 2; enough cells | 0.92 | 6414 | ANXA2R | SID255365553 |
| -0.44 | migration z between -2 and 2; enough cells | 0.72 | 6858 | GPR19 | SID255349992 |
| -0.44 | migration z between -2 and 2; enough cells | 0.72 | 4352 | EIF4E2 | SID255354301 |
| 1.19 | migration z between -2 and 2; enough cells | 1.04 | 6346 | GSTA3 | SID255350072 |
| 0.94 | migration z between -2 and 2; enough cells | 0.98 | 5692 | UTRN | SID255353086 |
| -0.08 | migration z between -2 and 2; enough cells | 0.86 | 3987 | ZFP64 | SID255358815 |
| 0.22 | migration z between -2 and 2; enough cells | 0.94 | 6092 | PRDX1 | SID255351405 |
| 1.3 | migration z between -2 and 2; enough cells | 1.22 | 6704 | PCDH8 | SID255351440 |
| -1.53 | migration z between -2 and 2; enough cells | 0.49 | 5138 | NWD1 | SID255364786 |
| 0.11 | migration z between -2 and 2; enough cells | 0.91 | 5958 | CCL25 | SID255352339 |
| 0.57 | migration z between -2 and 2; enough cells | 1.03 | 5726 | OR2A1 | SID255365206 |
| 0.26 | migration z between -2 and 2; enough cells | 0.96 | 5462 | ELMO3 | SID255360450 |
| -2.17 (active) | migration z below -2; enough cells | 0.31 | 4000 | NFU1 | SID255356993 |
| -1.07 | migration z between -2 and 2; enough cells | 0.61 | 5647 | C9orf152 | SID255365794 |
| -1.74 | migration z between -2 and 2; enough cells | 0.47 | 4340 | TEP1 | SID255352814 |
| 0.75 | migration z between -2 and 2; enough cells | 0.95 | 5390 | GLRA4 | SID255365946 |
| 0.8 | migration z between -2 and 2; enough cells | 1.09 | 4748 | CDAN1 | SID255363268 |
| 0.8 | migration z between -2 and 2; enough cells | 0.96 | 5601 | SMARCD1 | SID255352522 |
| 1.76 | migration z between -2 and 2; enough cells | 1.34 | 5726 | TMEM52B | SID255362509 |
| -0.21 | migration z between -2 and 2; enough cells | 0.76 | 4760 | ACSL3 | SID255349620 |
| -1.12 | migration z between -2 and 2; enough cells | 0.6 | 4652 | CTBP1-DT | SID255361976 |
| -3.65 (active) | migration z below -2; enough cells | -0.04 | 4284 | THSD4 | SID255360535 |
| 0.72 | migration z between -2 and 2; enough cells | 0.94 | 6296 | HRH3 | SID255355715 |
| 0.58 | migration z between -2 and 2; enough cells | 1.04 | 6384 | SCGB2B2 | SID255364780 |
| -0.1 | migration z between -2 and 2; enough cells | 0.86 | 5130 | SNRPA | SID255352546 |
| -0.08 | migration z between -2 and 2; enough cells | 0.79 | 5413 | REM1 | SID255357072 |
| 1.1 | migration z between -2 and 2; enough cells | 1.17 | 5952 | NHERF1 | SID255354224 |
| -1.42 | migration z between -2 and 2; enough cells | 0.53 | 4556 | PLA2G3 | SID255357326 |
| -1.6 | migration z between -2 and 2; enough cells | 0.5 | 4938 | PAX7 | SID255351426 |
| 1.02 | migration z between -2 and 2; enough cells | 1 | 6074 | CA1 | SID255348636 |
| -0.56 | migration z between -2 and 2; enough cells | 0.74 | 5349 | TSPAN12 | SID255356326 |
| -0.52 | migration z between -2 and 2; enough cells | 0.7 | 3852 | SOX9 | SID255352576 |
| -0.78 | migration z between -2 and 2; enough cells | 0.68 | 5726 | SNRPG | SID255352556 |

The list goes on; the last 7 above are carried over.
| migration robust z-score | migration class with cell-count check | migration relative to mock | nuclei per well, duplicate mean | gene knocked down | PubChem SID |
| --- | --- | --- | --- | --- | --- |
| 1.1 | migration z between -2 and 2; enough cells | 1.17 | 5952 | NHERF1 | SID255354224 |
| -1.42 | migration z between -2 and 2; enough cells | 0.53 | 4556 | PLA2G3 | SID255357326 |
| -1.6 | migration z between -2 and 2; enough cells | 0.5 | 4938 | PAX7 | SID255351426 |
| 1.02 | migration z between -2 and 2; enough cells | 1 | 6074 | CA1 | SID255348636 |
| -0.56 | migration z between -2 and 2; enough cells | 0.74 | 5349 | TSPAN12 | SID255356326 |
| -0.52 | migration z between -2 and 2; enough cells | 0.7 | 3852 | SOX9 | SID255352576 |
| -0.78 | migration z between -2 and 2; enough cells | 0.68 | 5726 | SNRPG | SID255352556 |
| 0.21 | migration z between -2 and 2; enough cells | 0.94 | 5736 | NDUFAF2 | SID255361966 |
| -0.4 | migration z between -2 and 2; enough cells | 0.78 | 6340 | BUD31 | SID255353903 |
| 0.78 | migration z between -2 and 2; enough cells | 1.09 | 5182 | RPP30 | SID255355176 |
| -1.27 | migration z between -2 and 2; enough cells | 0.56 | 4180 | GABRB1 | SID255349794 |
| 0.62 | migration z between -2 and 2; enough cells | 1.04 | 3706 | LIN54 | SID255362927 |
| 0.08 | migration z between -2 and 2; enough cells | 0.9 | 6369 | CUBN | SID255353369 |
| 0 | migration z between -2 and 2; enough cells | 0.8 | 5118 | SLC4A3 | SID255352440 |
| 1.28 | migration z between -2 and 2; enough cells | 1.21 | 6026 | NTAN1 | SID255362590 |
| 2.5 (active) | migration z above 2; enough cells | 1.51 | 5944 | ACTR3B | SID255359323 |
| -0.66 | migration z between -2 and 2; enough cells | 0.71 | 5765 | NAPG | SID255353801 |
| -1.23 | migration z between -2 and 2; enough cells | 0.56 | 5278 | PNMA8B | SID255359404 |
| -0.28 | migration z between -2 and 2; enough cells | 0.82 | 4630 | DNAJB1 | SID255350346 |
| 0.36 | migration z between -2 and 2; enough cells | 0.88 | 5302 | OIT3 | SID255363897 |
| -0.26 | migration z between -2 and 2; enough cells | 0.82 | 3724 | KAAG1 | SID255365286 |
| -1.27 | migration z between -2 and 2; enough cells | 0.56 | 3674 | TRIM69 | SID255363123 |
| 1.65 | migration z between -2 and 2; enough cells | 1.31 | 6116 | LOC90462 (retired record) | SID255361829 |
| -0.08 | migration z between -2 and 2; enough cells | 0.79 | 5226 | PACSIN1 | SID255357269 |
| 2.12 (active) | migration z above 2; enough cells | 1.44 | 6959 | DNAH2 | SID255363295 |
| -0.57 | migration z between -2 and 2; enough cells | 0.7 | 5730 | LHX3 | SID255353366 |
| -1.36 | migration z between -2 and 2; enough cells | 0.54 | 3960 | NYX | SID255359723 |
| -0.62 | migration z between -2 and 2; enough cells | 0.68 | 5214 | PPP2R2A | SID255351746 |
| 0.52 | migration z between -2 and 2; enough cells | 0.9 | 6250 | TBXAS1 | SID255352767 |
| -4.96 | under 3300 nuclei; migration not judged | -0.4 | 2078 | DMRTC1 | SID255359790 |
